Measured values as given in patent publication US3930838A, “S-benzyl-N,N-disec-butylthiocarbamate and its use as a rice field herbicide and a rice growth stimulant” (priority 1970, dated 1976).
At least one compound was matched to its structure with a doubt left.

What was measured:
rice [1] = test: Comparative selectivity test on rice in submerged culture, air-conditioned atmosphere (Example 7); format: in vivo; details: Table 1 data
Description: (§1) Into a set of cylindrical pots having a 200 cm^2 internal surface, sieved rice field earth in a quantity of 1 kg. per pot was introduced. After leveling and wetting with 200 cc. of water, the earth surface of the pots was uniformly sprayed with hydroacetone solutions containing, respectively, 0, 0.2, 0.3, and 0.4% active product (a.p.). 4 Ml. of the solution were sprayed onto each pot, so that the amount of active product in a set of four pots was 0, 4, 6, and 8 kg./ha., respectively. Immediately after spraying, each pot was filled with water to a level of 7 cm. over the soil surface. Thereafter, the sowing was carried out at the rate of 15 pre-germinated rice seeds per pot. Three repetitions were performed for each treatment. The pots were kept in an air-conditioned atmosphere with a daily temperature variation between 10° and 25°C and a 14 hour per day light period. After 24 days, the percentage of sprouted plants and the length of the shoot were recorded.

Rice plants = test: Open field test on rice, periodical checks of the plots (Example 10); format: in vivo, rice cv. RIBE; details: two months
Description: (§2) In the province of Novara, Italy, a test was performed outdoors in clay soil. For each treatment, a 600 m^2 plot provided with independent water feed was prepared. After soil working and leveling, the treatment was effected on Apr. 23, 1970, using formulations in emulsifiable oils of M3432 and of molinate, sprayed by means of mechanical devices. Only the plot treated with molinate was harrowed just after treatment in order to incorporate the product and to avoid any losses of same due to volatilization. Immediately afterwards, the plots were flooded to a water level of 10-12 cm.
Pre-germinated cv. RIBE rice was mechanically sowed broadcast on Apr. 25, 1970.
Periodical checks were carried out on the four plots. […]

rice [2] = test: Outdoor comparison of rice stimulating action of M3432 with lower homologues and isomers (Example 11); format: in vivo; details: 4 and 6 kg./ha., 21 days, FIGS. 1 and 2
Description: In the province of Pavia, a test was carried out with outdoor treatments in a loam soil, on rice plots having a 12 m^2 surface each.
Formulations of 20% M3432 in emulsifiable oil were compared with 20% formulations in emulsifiable oil of S-benzyl-N,N-diisopropyl thiocarbamate; S-benzyl-N,N-diisobutylthiocarbamate; and S-benzyl-N,N-din.butylthiocarbamate employing quantities of 4, 6 and 20 kg./ha.
For each treatment, the results were gathered on 20 plants 21 days after the sowing.

Echinocloa spp. [3] = test: Pre-emergence activity on Echinocloa in flooded cultures, pots (Example 13); format: in vivo
Description: as §1, with “After 24 days, the percentage of sprouted plants and the length of the shoot were recorded.” left out
The same method described in Example 7 was adopted, the only variations being the doses (0, 0.5, 1, 2 and 4 kg./ha.). the type of formulation and the sowing of Echinocloa spp. (25 slightly pre-germinated seeds per pot) instead of rice.

grass (Echinocloa spp.) = test: Residual activity, second sowing with grass 24 days after treatment (Example 14); format: in vivo; details: additional 24 days
Description: The same method described in Example 9 was followed, the only variation being in sowing Echinocloa spp. (40 slightly pregerminated seeds per box) instead of rice.
After the Echinocloa spp. plants were killed, a second sowing with grass was carried out in the same boxes, 24 days after the treatment, employing 20 slightly pre-germinated seeds per box.

Echinocloa spp. [4] = test: Outdoor infestation degree in rice plots (Example 15); format: in vivo; details: for Infestation degree: 36 days
Description: as §2
A clear confirmation of the efficiency of M3432 towards Echinocloa spp. was obtained outdoors, where the test was carried out under conditions which are characteristic of Italian rice growing. The experimental conditions are described in Example 10.

[5] = test system: graminae, in particular Echinocloa spp. (barnyard grass); test: Weeding action, general statement; format: in vivo
dicotyledons = test: Weeding efficiency on dicotyledons, general statement; format: in vivo; details: pre-emergence stage
rice [6] = test: Stimulating action on rice, general statement; format: in vivo
weeds = details: Belgian Pat. No. 728,265; cited from earlier work

Structure (SMILES)	Stimulating action on rice in submerged culture (rice [1])	Rice plants appearance (Rice plants; 4 kg./ha.)	Rice plants appearance (Rice plants; 6 kg./ha.)	Appearance of rice roots (rice [2])	Remarks (Echinocloa spp. [3]; Test No. 2, hydroacetone solution, 0.5 kg./ha., 21 days)	Activity on Echinocloa spp. in flooded cultures, compared with molinate (Echinocloa spp. [3]; pre-emergence)	Height at which growth of Echinocloa plants is stopped (Echinocloa spp. [3]; pre-emergence, flooded culture, depending upon dose and formulation)	Fate of Echinocloa plants (Echinocloa spp. [3]; pre-emergence, flooded culture, in every case)	Remarks (grass (Echinocloa spp.); 2 kg./ha.)	Remarks (grass (Echinocloa spp.); 4 kg./ha.) [plants alive]	Infestation degree (Echinocloa spp. [4]; 4 kg./ha.)	Infestation degree (Echinocloa spp. [4]; 6 kg./ha.)	Levee of the plots, presence of barnyard grass (Echinocloa spp. [4]; levee of treated plots)	Weeding efficiency on various graminae ([5]; pre-emergence stage)	Average quantity at which weeding action occurs ([5]; several weeds, in particular Echinocloa spp.)	Weeding efficiency on dicotyledons (dicotyledons)	Stimulating action on rice (rice [6]; 4 to 6 kg./ha.)	Rice growth (rice [6]; in vivo)	Activity towards weeds compared with ring-substituted monothiocarbamates (weeds)
CCC(C)N(C(=O)SCc1ccccc1)C(C)CC (stereo not shown) [M3432, S-benzyl-N,N-disec.butylthiocarbamate]	evident	excellent	excellent	Roots are longer, bigger and more numerous	Alive plants	high degree of activity, at least of the same order as that exerted by molinate	0.5 and 6	rotting and death followed	All plants alive	13	nil	nil	thoroughly free from barnyard grass	high	2 and 6	very weak	very evident	enhances rice growth	
CCN(CC)C(=O)SCc1ccccc1 [S-benzyl-N,N-diethylthiocarbamate]																			less active towards the weeds
